No constants are given. Whether binding was seen depends on the method and setting. In cells and extracts the contact can be indirect. Some results given as binding are weak or reduced against the parent protein; the word gives no strength. Tags and fused reporters may be left off the sequences shown.
Biological target: T1, Sbh1-HA (S. cerevisiae) (UniProt P52870)
T1 sequence: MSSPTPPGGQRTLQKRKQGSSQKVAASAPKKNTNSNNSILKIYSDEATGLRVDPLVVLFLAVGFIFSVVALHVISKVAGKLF
Test: co-IP

B1: Sec61 (endogenous) (protein, UniProt P32915 1-480)
chain: MSSNRVLDLFKPFESFLPEVIAPERKVPYNQKLIWTGVSLLIFLILGQIPLYGIVSSETSDPLYWLRAMLASNRGTLLELGVSPIITSSMIFQFLQGTQLLQIRPESKQDRELFQIAQKVCAIILILGQALVVVMTGNYGAPSDLGLPICLLLIFQLMFASLIVMLLDELLSKGYGLGSGISLFTATNIAEQIFWRAFAPTTVNSGRGKEFEGAVIAFFHLLAVRKDKKRALVEAFYRTNLPNMFQVLMTVAIFLFVLYLQGFRYELPIRSTKVRGQIGIYPIKLFYTSNTPIMLQSALTSNIFLISQILFQKYPTNPLIRLIGVWGIRPGTQGPQMALSGLAYYIQPLMSLSEALLDPIKTIVYITFVLGSCAVFSKTWIEISGTSPRDIAKQFKDQGMVINGKRETSIYRELKKIIPTAAAFGGATIGALSVGSDLLGTLGSGASILMATTTIYGYYEAAAKEGGFTKNLVPGFSDLM
For B1, the binding was “binds”.
